The results in this text go back to paper PMC10870779.

By UniProt entry, the sequences of proteins in these tests, tags left out.
UniProt P23258: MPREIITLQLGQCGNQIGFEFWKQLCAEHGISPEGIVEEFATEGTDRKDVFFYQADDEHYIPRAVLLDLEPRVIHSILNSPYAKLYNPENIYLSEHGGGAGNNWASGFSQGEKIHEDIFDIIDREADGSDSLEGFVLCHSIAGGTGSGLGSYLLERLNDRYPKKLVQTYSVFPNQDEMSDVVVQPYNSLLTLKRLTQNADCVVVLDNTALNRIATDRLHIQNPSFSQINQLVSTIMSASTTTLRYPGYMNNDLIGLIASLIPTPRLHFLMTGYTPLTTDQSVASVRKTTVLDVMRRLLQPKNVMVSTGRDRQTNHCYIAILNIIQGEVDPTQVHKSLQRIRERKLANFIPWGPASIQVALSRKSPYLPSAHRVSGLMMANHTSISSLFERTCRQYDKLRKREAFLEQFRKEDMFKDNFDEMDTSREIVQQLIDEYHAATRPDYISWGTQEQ
UniProt Q921G8: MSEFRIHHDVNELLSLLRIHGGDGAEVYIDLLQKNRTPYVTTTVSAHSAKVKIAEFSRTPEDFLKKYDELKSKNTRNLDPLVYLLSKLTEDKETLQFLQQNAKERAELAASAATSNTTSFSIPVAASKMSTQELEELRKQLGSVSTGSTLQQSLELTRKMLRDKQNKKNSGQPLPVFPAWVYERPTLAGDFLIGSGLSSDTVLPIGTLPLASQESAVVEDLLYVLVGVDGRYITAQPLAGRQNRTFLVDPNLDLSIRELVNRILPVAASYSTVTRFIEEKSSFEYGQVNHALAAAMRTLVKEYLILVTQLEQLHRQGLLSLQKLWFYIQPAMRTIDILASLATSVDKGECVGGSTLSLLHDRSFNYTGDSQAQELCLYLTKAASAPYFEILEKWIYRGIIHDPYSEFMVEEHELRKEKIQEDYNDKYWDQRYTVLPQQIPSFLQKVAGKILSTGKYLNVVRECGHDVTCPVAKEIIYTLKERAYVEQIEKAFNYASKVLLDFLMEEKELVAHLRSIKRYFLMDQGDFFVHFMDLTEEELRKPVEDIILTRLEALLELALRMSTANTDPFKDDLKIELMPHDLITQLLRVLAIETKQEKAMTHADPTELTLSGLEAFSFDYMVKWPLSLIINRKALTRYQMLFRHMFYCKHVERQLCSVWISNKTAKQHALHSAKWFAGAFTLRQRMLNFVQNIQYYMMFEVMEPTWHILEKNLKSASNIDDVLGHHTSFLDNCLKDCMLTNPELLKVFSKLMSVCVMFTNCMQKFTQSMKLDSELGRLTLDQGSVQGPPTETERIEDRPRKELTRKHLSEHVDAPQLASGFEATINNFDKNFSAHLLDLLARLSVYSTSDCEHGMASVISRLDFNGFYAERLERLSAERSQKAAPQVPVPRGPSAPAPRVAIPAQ
UniProt P58854: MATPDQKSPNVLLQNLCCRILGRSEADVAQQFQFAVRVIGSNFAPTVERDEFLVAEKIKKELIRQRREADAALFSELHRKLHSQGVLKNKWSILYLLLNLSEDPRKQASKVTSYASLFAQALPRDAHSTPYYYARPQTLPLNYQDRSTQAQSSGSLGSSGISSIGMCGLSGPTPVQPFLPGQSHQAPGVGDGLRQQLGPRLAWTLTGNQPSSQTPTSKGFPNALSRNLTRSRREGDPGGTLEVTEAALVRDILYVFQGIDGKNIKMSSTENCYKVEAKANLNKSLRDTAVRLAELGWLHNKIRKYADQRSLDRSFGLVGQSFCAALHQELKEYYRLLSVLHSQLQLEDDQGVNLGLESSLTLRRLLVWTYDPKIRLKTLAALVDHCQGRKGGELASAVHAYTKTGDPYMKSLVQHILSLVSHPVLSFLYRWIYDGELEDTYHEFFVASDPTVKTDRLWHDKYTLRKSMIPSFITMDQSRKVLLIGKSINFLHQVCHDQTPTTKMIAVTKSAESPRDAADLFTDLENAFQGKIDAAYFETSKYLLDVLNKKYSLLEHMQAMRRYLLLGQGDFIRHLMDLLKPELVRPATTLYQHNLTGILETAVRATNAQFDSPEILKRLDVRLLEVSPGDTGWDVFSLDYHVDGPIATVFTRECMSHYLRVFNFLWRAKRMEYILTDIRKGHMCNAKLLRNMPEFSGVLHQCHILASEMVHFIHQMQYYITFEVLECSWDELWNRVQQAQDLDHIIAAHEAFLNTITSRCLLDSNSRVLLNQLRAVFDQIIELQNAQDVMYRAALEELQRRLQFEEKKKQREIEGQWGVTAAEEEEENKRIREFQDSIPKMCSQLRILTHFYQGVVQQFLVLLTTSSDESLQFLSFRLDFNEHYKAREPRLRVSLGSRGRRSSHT
UniProt Q9D4F8: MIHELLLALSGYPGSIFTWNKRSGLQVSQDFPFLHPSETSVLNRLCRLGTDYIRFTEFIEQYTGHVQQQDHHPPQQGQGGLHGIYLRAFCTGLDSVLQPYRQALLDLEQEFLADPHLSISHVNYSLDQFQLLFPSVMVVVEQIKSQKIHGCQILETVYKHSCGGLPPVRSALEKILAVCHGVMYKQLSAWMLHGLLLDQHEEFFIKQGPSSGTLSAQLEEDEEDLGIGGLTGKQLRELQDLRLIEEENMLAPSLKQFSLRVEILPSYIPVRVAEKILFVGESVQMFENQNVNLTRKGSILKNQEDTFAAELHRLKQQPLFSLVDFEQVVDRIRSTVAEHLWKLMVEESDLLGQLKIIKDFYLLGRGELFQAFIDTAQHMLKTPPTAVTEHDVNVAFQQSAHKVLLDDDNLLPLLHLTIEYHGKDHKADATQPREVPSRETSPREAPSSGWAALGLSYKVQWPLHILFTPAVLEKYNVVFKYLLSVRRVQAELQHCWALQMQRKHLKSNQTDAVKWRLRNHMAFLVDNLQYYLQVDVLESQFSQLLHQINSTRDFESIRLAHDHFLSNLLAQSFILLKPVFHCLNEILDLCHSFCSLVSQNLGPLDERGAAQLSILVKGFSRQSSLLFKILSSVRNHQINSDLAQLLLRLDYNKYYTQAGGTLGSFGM

Assay [1] addresses T1, C-terminally TagRFP-tagged mouse GIT2, transcript variant 1 (mouse) (UniProt Q9JLQ2).
T1 sequence: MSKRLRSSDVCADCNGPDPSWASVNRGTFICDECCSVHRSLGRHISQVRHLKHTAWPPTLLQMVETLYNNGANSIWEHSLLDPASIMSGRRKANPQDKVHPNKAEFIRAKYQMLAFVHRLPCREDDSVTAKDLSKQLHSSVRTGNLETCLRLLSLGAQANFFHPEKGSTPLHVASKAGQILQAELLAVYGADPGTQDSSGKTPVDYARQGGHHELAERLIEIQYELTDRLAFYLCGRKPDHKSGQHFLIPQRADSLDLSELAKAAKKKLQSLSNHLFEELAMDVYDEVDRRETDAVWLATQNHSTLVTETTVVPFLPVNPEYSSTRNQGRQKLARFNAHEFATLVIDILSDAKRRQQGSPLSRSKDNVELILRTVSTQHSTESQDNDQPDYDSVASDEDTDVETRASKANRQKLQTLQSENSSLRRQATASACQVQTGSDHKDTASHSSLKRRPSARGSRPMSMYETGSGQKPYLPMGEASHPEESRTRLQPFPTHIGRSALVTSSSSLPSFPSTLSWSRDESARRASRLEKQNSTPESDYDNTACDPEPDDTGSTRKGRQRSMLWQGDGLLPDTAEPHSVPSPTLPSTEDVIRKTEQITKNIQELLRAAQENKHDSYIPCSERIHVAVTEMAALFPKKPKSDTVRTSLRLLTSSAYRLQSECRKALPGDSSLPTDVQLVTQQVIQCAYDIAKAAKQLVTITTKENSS
In words: co-IP; whole-cell extracts of cells expressing GIT2-TagRFP or TagRFP alone; protein A beads with rabbit Ab to tRFP or mAb to γ-tubulin; immunoblot. Background: In western blotting, separated proteins are transferred to a membrane and probed.

Assay [2] deals with T2, G protein-coupled receptor kinase-interacting protein 2 (GIT2), GIT2-long, endogenous (mouse (endogenous in BMMCL)) (UniProt Q9JLQ2).
T2 sequence: T1 sequence
Description: co-IP; whole-cell 1% NP-40 extracts of BMMCL (HEPES buffer pH 7.6, 75 mM NaCl, 1 mM MgCl2, 1 mM EGTA) incubated with protein A beads saturated with rabbit Ab to GIT2 or mouse mAb TU-31 to γ-tubulin; endogenous proteins; immunoblot.

Assay [3] addresses N-terminally GST-tagged human γ-tubulin (human) (UniProt P23258). In words: pull-down; GST-tagged human γ-tubulin or GST alone with whole-cell extracts; immunoblot; only the target purified.

No constants are given. Whether binding was seen depends on the method and setting. Binding seen in cells or lysates may run through a third protein. Some results given as binding are weak or reduced against the parent protein; the word gives no strength. For some assays here: Where a sequence is shown, tags or fusion partners need not be part of it.

For “γ-tubulin complex protein 2 (GCP2), endogenous (from UniProt Q921G8 1-905)”, the binding result in assay [1], in assay [2] and in assay [3] was “binds” throughout.

In the case of “γ-tubulin complex protein 3 (GCP3), endogenous (from UniProt P58854 1-905)”, the binding entry in assay [1] and in assay [2] was “binds” in each case.

Regarding “γ-tubulin complex protein 4 (GCP4), endogenous (from UniProt Q9D4F8 1-667)”, the binding result in assay [1], in assay [2] and in assay [3] was “binds” each time.
